In test [1] the target is T1, MNS3-GFP-HDEL (full-length MNS3 C-terminally tagged with GFP and the ER retrieval signal HDEL) (Arabidopsis thaliana) (UniProt Q93Y37).
T1 sequence: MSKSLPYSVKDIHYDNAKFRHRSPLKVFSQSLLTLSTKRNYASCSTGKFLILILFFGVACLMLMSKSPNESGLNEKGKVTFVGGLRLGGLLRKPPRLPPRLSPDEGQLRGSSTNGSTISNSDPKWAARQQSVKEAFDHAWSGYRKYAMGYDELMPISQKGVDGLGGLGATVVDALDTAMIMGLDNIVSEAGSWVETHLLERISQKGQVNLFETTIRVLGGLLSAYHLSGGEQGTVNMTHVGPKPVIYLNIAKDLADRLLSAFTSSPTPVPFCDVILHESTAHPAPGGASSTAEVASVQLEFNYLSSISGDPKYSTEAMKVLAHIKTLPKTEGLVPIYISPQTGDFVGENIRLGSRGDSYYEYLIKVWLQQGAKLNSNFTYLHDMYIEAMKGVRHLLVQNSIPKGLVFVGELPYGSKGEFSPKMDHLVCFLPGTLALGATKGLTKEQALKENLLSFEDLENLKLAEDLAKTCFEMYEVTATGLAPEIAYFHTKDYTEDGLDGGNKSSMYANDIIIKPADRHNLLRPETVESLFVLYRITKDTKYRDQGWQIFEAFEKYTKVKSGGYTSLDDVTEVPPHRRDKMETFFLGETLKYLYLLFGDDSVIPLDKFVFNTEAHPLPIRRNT
Description: co-IP; GFP baits co-expressed with mRFP fusions in N. benthamiana leaves; extracts in 1x PBS, 1% Triton X-100, protease inhibitors; GFP-Trap-A beads, 60-90 min at 4 °C; immunoblot with anti-GFP and anti-mRFP.

Test [2] addresses T2, MNS3-GFP (Arabidopsis ER-α-mannosidase I fused to GFP) (Arabidopsis thaliana) (UniProt Q93Y37).
T2 sequence: T1 sequence
The description is as above.

No constants are given. Whether binding was seen depends on the method and setting. In cells and extracts the contact can be indirect. A result given as binding can be weak or reduced; the word gives no strength. Sequences can lack the tags named with a protein.

As to “GnTI-mRFP (β1,2-N-acetylglucosaminyltransferase I fused to mRFP) (enzyme)”, the binding entry in test [1] and in test [2] was “binds” each time.
